We go through two molecules from publication PMC4511450.

The target in test [1] is T1, APP (endogenous, adult mouse forebrain) (mouse (endogenous in adult mouse forebrain)), P12023.
T1 chain: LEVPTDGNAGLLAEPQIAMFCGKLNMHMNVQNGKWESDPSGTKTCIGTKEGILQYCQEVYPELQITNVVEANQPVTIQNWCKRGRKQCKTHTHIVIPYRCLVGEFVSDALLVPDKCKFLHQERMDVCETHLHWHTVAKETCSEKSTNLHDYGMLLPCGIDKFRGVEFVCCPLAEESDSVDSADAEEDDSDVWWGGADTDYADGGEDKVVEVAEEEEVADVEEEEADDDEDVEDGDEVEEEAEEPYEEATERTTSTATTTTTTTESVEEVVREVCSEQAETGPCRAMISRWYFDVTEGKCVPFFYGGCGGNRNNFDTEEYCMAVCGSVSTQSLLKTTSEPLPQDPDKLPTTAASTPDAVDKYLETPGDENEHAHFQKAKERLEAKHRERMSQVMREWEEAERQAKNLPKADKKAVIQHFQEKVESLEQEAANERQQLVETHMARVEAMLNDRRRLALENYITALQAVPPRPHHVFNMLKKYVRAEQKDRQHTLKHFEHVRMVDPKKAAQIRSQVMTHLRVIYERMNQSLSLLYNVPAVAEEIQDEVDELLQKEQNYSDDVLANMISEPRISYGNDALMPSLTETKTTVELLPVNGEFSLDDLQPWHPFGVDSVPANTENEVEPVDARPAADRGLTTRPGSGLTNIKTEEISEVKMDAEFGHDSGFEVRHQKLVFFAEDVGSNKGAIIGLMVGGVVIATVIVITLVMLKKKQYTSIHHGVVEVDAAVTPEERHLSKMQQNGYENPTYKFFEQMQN
Description: co-IP; adult mouse forebrains extracted with 1 % Triton X-100; IP with anti-APP C66 or anti-Syt antibodies, control IgG; Western blot; endogenous proteins. As to conditions: remark: other sources report otherwise.

In test [2] the target is T2, Synaptotagmin-1 (endogenous, adult mouse forebrain) (mouse (endogenous in adult mouse forebrain)), P46096.
T2 chain: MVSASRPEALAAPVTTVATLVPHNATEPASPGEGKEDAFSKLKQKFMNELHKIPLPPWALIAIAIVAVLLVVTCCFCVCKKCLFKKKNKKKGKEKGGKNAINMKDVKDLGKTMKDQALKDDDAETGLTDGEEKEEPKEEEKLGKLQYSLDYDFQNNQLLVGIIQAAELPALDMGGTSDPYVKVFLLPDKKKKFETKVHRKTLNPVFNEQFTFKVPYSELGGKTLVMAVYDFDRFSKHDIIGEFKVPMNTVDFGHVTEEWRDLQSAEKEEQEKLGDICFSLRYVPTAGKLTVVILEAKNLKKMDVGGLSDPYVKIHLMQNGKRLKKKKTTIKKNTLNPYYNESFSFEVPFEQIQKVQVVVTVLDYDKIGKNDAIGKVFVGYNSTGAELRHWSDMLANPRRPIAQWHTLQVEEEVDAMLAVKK
The description is as above. As to conditions: remark: other sources report otherwise.

No constants are given. Whether binding was seen depends on the method and setting. In cells and extracts the contact can be indirect. Some results given as binding are weak or reduced against the parent protein; the word gives no strength. Sequences can lack the tags named with a protein.

B1: Synaptotagmin-1 (endogenous, adult mouse forebrain), P46096 1-421 (protein)
chain: T2 chain
B1: the binding entry in test [1] is “binds”.

B2: APP (endogenous, adult mouse forebrain), P12023 18-770 (protein)
chain: T1 chain
Consider B2, for which the binding entry in test [2] is “binds”.
